{"source": "PubChem BioAssay AID504850", "about": "(National Center for Advancing Translational Sciences (NCATS), 2011)", "note": "The whole screen tested about 2,300 compounds, of which about 1,200 (52%) were called active. The set was probably picked from earlier hits. Inconclusive results, whose numbers are uncertain, are shown with a selection of clear calls. The call rests on the fitted dose curve; in most records, active means well fitted inhibition curve with a large enough effect; inconclusive means small, poorly fitted or top-dose-only effect, or effect the other way; inactive means no such curve, though single readings can be large or run the other way. Potencies beside an inconclusive call are fits to weak or partial responses and may not hold up. On the % scale 0 is the no-effect control and ±100 the full control effect; potency means the concentration at half of the fitted maximal effect."}
{"assay": "Confirmation screen for delayed death inhibitors of the malarial parasite plastid, 48 hour incubation; further: nearly all actives have a fitted effect of over 65% in size", "settings": "P. falciparum-infected erythrocytes, luciferase growth; series mostly up to 28.7 µM; activity change, negative = inhibition: at the top concentration", "procedure,_shortened": "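Erythrocytes infected with luciferase-expressing P. falciparum (2% hematocrit, 0.1% parasitemia) incubated with compounds 48 hours at 37 C, 5% CO2, in RPMI/Albumax. Growth inhibition scored as reduced luminescence after detection reagent.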"}
{"smiles": "COc1ccc(N2C(=O)C3C(C2=O)C(C(=O)c2ccc(Cl)cc2)N2CCCC32)cc1", "note": "(configuration not stated)", "Potency": "inconclusive: 22.4 µM [inhibitor, single point]"}
{"smiles": "CC(NC(=O)Nc1ccc(Cl)cc1)c1ccc2c(c1)OCO2", "note": "(configuration not stated)", "activity change, negative = inhibition": "inactive: -25.1%"}
{"smiles": "CCCc1cc(=O)n2nc(N3CCC(C(=O)N4CCN(c5ccc(OC)cc5)CC4)CC3)sc2n1", "Potency": "inconclusive: 12.6 µM [inhibitor, single point]"}
{"smiles": "Cc1ccc(C)c(-n2nnnc2Sc2nnnn2-c2ccccc2)c1", "Potency": "inconclusive: 14.1 µM [inhibitor, single point]"}
{"smiles": "CCCCn1c(=O)[nH]c(=O)c2c1nc(Cn1ncc(Cl)c(Cl)c1=O)n2CCC", "Potency": "inconclusive: 11.2 µM [inhibitor, partial curve]"}
{"smiles": "COc1ccc(C(=O)NC(=S)N(C)C2CCCCC2)cc1", "activity change, negative = inhibition": "inactive: -90.4%"}
{"smiles": "Nc1ccc(C(=O)OCc2nc3c(ccc4ccccc43)[nH]2)cc1", "Potency": "inconclusive: 5.01 µM [activator, partial curve]"}
{"smiles": "C/C=C(\\C)C(=O)NCCN1C2=NC[C@H](C(C)C)N2C[C@H]1Cc1ccc(O)cc1", "Potency": "inconclusive: 8.91 µM [inhibitor, partial curve, poor fit]"}
{"smiles": "CC(=O)c1cccc(NC(=O)CSc2ccc(-c3sc(C)nc3C)nn2)c1", "Potency": "inconclusive: 10 µM [inhibitor, partial curve, poor fit]"}
{"smiles": "Cc1oc(=O)c(NC(=O)c2ccc(Cl)cc2)cc1C(=O)c1ccccc1", "activity change, negative = inhibition": "inactive: -5.78%"}
{"smiles": "Cc1ccccc1NC(=O)c1c([N+](=O)[O-])c(C(C)(C)C)nn1C", "Potency": "inconclusive: 0.1 µM [inhibitor, full curve, poor fit]"}
{"smiles": "O=C(/C=C/c1cccc(F)c1)c1ccc(N2CCOCC2)cc1", "Potency": "inconclusive: 4.47 µM [activator, partial curve]"}
{"smiles": "COc1ccc2[nH]c(C(=O)NCc3ccccc3)c(C)c2c1", "Potency": "inconclusive: 0.316 µM [inhibitor, full curve, poor fit]"}
{"smiles": "O=C(CCN1CCN(c2ccc(F)cc2)CC1)Nc1ccccc1F", "activity change, negative = inhibition": "inactive: -14.3%"}
{"smiles": "CC1Cc2ccccc2N1CC(=O)Nc1ccc2c(c1)OCCCO2", "note": "(configuration not stated)", "Potency": "inconclusive: 8.91 µM [inhibitor, partial curve, poor fit]"}
{"smiles": "Cc1ccc(S(=O)(=O)N(C)C)cc1NC(=O)c1cncc(Br)c1", "Potency": "active: 8.91 µM"}
{"smiles": "O=C(O)c1cc2ccccc2c(N=Nc2cccnc2)c1O", "Potency": "inconclusive: 8.91 µM [inhibitor, partial curve]"}
{"smiles": "COc1ccccc1NC(=O)c1nc(S(=O)(=O)Cc2ccccc2)ncc1Cl", "Potency": "inconclusive: 14.1 µM [inhibitor, partial curve, poor fit]"}
{"smiles": "Cc1ccc(-n2cc(CCCCCCCCC(=O)O)nn2)cc1", "Potency": "inconclusive: 17.8 µM [inhibitor, single point]"}
{"smiles": "CCOc1ccc(/C=C/C(=O)NCCc2ccc(OC)c(OC)c2)cc1", "Potency": "inconclusive: 5.01 µM [inhibitor, partial curve, poor fit]"}
{"smiles": "COc1ccc(CNC(=O)Nc2ccc(C)cc2)cc1", "Potency": "inconclusive: 12.6 µM [activator, partial curve]"}
{"smiles": "CCN(CC)CCOC(=O)c1ccc(NC(=O)C(C)NC(=O)C23CC4CC(CC(C4)C2)C3)cc1", "note": "(configuration not stated)", "Potency": "inconclusive: 15.8 µM [inhibitor, partial curve]"}
{"smiles": "O=S(=O)(c1ccccc1)c1cccc(S(=O)(=O)N2CCCCC2)c1", "Potency": "inconclusive: 22.4 µM [inhibitor, single point]"}
{"smiles": "COc1ccccc1NS(=O)(=O)c1ccc2oc(SCc3ccc(C#N)cc3)nc2c1", "Potency": "inconclusive: 15.8 µM [inhibitor, single point]"}
{"smiles": "Cc1ccc(C)c(/C=C/C(=O)c2ccccc(=O)c2O)c1", "Potency": "active: 14.1 µM"}
{"smiles": "CCOC(=O)c1sc(NC(=O)CSc2ncccn2)nc1C", "activity change, negative = inhibition": "inactive: -42.1%"}
{"smiles": "CCCC(=O)N1CCN(c2ccc(NC(=O)c3ccc([N+](=O)[O-])o3)cc2)CC1", "Potency": "active: 7.08 µM"}
{"smiles": "CCOC(=O)N1CCC(NC(=O)C2CCN(S(=O)(=O)c3cccc4cccnc34)CC2)CC1", "Potency": "inconclusive: 15.8 µM [inhibitor, partial curve, poor fit]"}
{"smiles": "CC(C)(C)C1C/C(=C/c2ccccn2)C(=O)/C(=C/c2ccccn2)C1", "note": "(configuration not stated)", "Potency": "active: 0.316 µM"}
{"smiles": "Brc1c(CSc2nc3ccccc3s2)nc2ncccn12", "Potency": "inconclusive: 12.6 µM [inhibitor, single point]"}
{"smiles": "CCOc1ccc(C2NC(=S)NC3=C2CCc2ccccc23)cc1", "note": "(configuration not stated)", "Potency": "inconclusive: 22.4 µM [inhibitor, single point]"}
{"smiles": "Cc1cccc(C)c1N1CCN(C(=O)c2ccc3c(c2)OCO3)CC1", "Potency": "active: 15.8 µM"}
{"smiles": "Cc1[nH]c(C)c(S(=O)(=O)N2CCN(c3cccc(C(F)(F)F)c3)CC2)c1C(=O)N1CCCCC1", "activity change, negative = inhibition": "inactive: -17.5%"}
{"smiles": "Cc1ccccc1Nc1nc(N)nc(COC(=O)c2cccn2C)n1", "Potency": "inconclusive: 3.16 µM [activator, partial curve]"}
{"smiles": "CCOC(=O)Cc1csc(N/N=C/c2cccc([N+](=O)[O-])c2)n1", "Potency": "inconclusive: 7.08 µM [activator, partial curve, poor fit]"}
{"smiles": "CCOC(=O)c1ccc(NC(=O)CCn2nnc3ccccc32)cc1", "Potency": "inconclusive: 0.794 µM [activator, full curve]"}
{"smiles": "CSc1ccccc1OCc1cc(C(=O)NCCn2ccnc2C)no1", "activity change, negative = inhibition": "inactive: 15.8%"}
{"smiles": "O=C(/C=C/c1ccccc1Cl)c1ccc(O)cc1", "Potency": "inconclusive: 15.8 µM [inhibitor, single point]"}
{"smiles": "CO[C@H]1OC2O[C@@]3(C)CC[C@H]4[C@H](C)CC[C@@H]([C@H]1C)[C@@]24OO3", "note": "(some centres not stated)", "Potency": "active: 0.0708 µM"}
{"smiles": "Cc1ccc(NC(=O)c2cccc(NC(=O)/C=C/c3ccco3)c2)cc1C", "Potency": "inconclusive: 12.6 µM [inhibitor, partial curve]"}
{"smiles": "Cc1c(CCO)c(=O)[nH]n1C(=O)c1c(F)cccc1F", "Potency": "inconclusive: 6.31 µM [inhibitor, partial curve, poor fit]"}
{"smiles": "N#Cc1c(N2C(=O)Nc3ccccc3N2O)sc2c1CCCCCC2", "Potency": "inconclusive: 14.1 µM [inhibitor, partial curve]"}
{"smiles": "CN1CCN(c2ncnc3c2c(-c2ccccc2)cn3-c2ccc(F)cc2)CC1", "Potency": "active: 11.2 µM"}
{"smiles": "OC1(c2cccs2)CN(c2ccc(Br)cc2)C2=[N+]1CCCS2", "note": "(configuration not stated)", "Potency": "active: 12.6 µM"}
{"smiles": "O=C(/C=C/c1cccc(O)c1)c1cccnc1", "Potency": "inconclusive: 15.8 µM [inhibitor, single point]"}
{"smiles": "O=C(NCc1cccnc1)c1nc(-c2ccccc2)n(-c2ccccc2)n1", "activity change, negative = inhibition": "inactive: -19.4%"}
{"smiles": "CCOC(=O)NC(=O)COC(=O)c1ccc(O)cc1", "activity change, negative = inhibition": "inactive: -10.4%"}
{"smiles": "COc1ccc(/C=C/C(=O)c2ccc(C(=O)/C=C/c3ccc(OC)c(OC)c3)cc2)cc1OC", "Potency": "inconclusive: 10 µM [inhibitor, partial curve, poor fit]"}
{"smiles": "Cc1cc(C)cc(NC(=O)C[n+]2ccccc2)c1", "Potency": "inconclusive: 15.8 µM [inhibitor, single point]"}
{"smiles": "CCOc1cc(/C=C2\\CN(CC)C/C(=C\\c3ccc(O)c(OCC)c3)C2=O)ccc1O", "Potency": "active: 3.98 µM"}
{"smiles": "Cc1ccc2[nH]cc(CCCN3C(=O)c4ccccc4C3=O)c2c1", "Potency": "inconclusive: 15.8 µM [inhibitor, single point]"}
{"smiles": "COc1ccccc1N1CCN(CCCCN2C(=O)C3CCCCN3C2=O)CC1", "note": "(configuration not stated)", "Potency": "inconclusive: 15.8 µM [inhibitor, single point]"}
{"smiles": "CS(=O)(=O)c1ccc(NCCc2ccc(S(N)(=O)=O)cc2)c([N+](=O)[O-])c1", "Potency": "inconclusive: 12.6 µM [inhibitor, partial curve, poor fit]"}
{"smiles": "CCOc1ccccc1OCC(=O)Nc1cccc(S(=O)(=O)N2CCCCCC2)c1", "Potency": "inconclusive: 15.8 µM [inhibitor, partial curve]"}
{"smiles": "O=[N+]([O-])c1ccc(CNC2CCCc3ccccc32)cc1", "note": "(configuration not stated)", "activity change, negative = inhibition": "inactive: -49.5%"}
{"smiles": "CC(C)CNC(=O)C(=O)Nc1cc2c3c(c1)C(C)C(=O)N3CCC2", "note": "(configuration not stated)", "Potency": "inconclusive: 11.2 µM [inhibitor, partial curve, poor fit]"}
{"smiles": "Cn1c(=O)[nH]c(=O)c2c1nc(N1CCCCC1)n2CC(O)COc1ccc([N+](=O)[O-])cc1", "note": "(configuration not stated)", "Potency": "inconclusive: 10 µM [inhibitor, partial curve, poor fit]"}
{"smiles": "CSc1ccc(C2c3[nH]c4ccccc4c3CCN2C(=O)c2ccnn2C)cc1", "note": "(configuration not stated)", "Potency": "active: 7.08 µM"}
{"smiles": "CCOc1ccc2c(c1)C(c1ccccc1)=NNC(c1ccccc1)=N2", "Potency": "active: 12.6 µM"}
{"smiles": "Cc1ccc(C)n1CCN1CCN(S(=O)(=O)c2ccc(F)cc2F)CC1", "Potency": "inconclusive: 14.1 µM [inhibitor, single point]"}
{"smiles": "CCn1nc(C)c(NC(=O)CC23CC4CC(CC(C4)C2)C3)c1C", "activity change, negative = inhibition": "inactive: -8.09%"}
{"smiles": "CC(C)(C)Nc1nc(-c2ccc3c(c2)CCN3C(=O)C2CC2)cs1", "Potency": "inconclusive: 4.47 µM [activator, partial curve]"}
{"smiles": "O=C(CCS(=O)(=O)c1ccccc1)Nc1nc2c(s1)COc1ccccc1-2", "Potency": "inconclusive: 20 µM [inhibitor, partial curve, poor fit]"}
{"smiles": "Fc1ccc2nc(Nc3nc4c(F)cc(F)cc4s3)sc2c1", "Potency": "inconclusive: 17.8 µM [inhibitor, partial curve, poor fit]"}
{"smiles": "CCOC(=O)c1ccccc1NC(=O)C1CC(=O)N(C2CCCCC2)C1", "note": "(configuration not stated)", "Potency": "inconclusive: 6.31 µM [inhibitor, partial curve]"}
{"smiles": "CCC(C)[C@H](NC(=O)[C@H](Cc1ccccc1)n1c(=O)[nH]c2ccccc2c1=O)C(=O)NCC1CCC(C(=O)O)CC1", "note": "(some centres not stated)", "Potency": "active: 12.6 µM"}
{"smiles": "O=C/C=C/c1c(-c2ccccc2)cc2oc3ccccc3cc1-2", "activity change, negative = inhibition": "inactive: -24.6%"}
